Whole data set: some 33,000 sequences, median “E-score (-0.5 to 0.5)” near -0.016, cut for the highest 2% near 0.3. The list shows a part of the results.
target: T1, Yer184c (UniProt P39961); test: PBM E-score (8-mer binding enrichment) (E-score (-0.5 to 0.5)); higher = stronger / more preferred TF binding; settings: protein concentration: 100 nM; construct: GST-full length
T1 sequence: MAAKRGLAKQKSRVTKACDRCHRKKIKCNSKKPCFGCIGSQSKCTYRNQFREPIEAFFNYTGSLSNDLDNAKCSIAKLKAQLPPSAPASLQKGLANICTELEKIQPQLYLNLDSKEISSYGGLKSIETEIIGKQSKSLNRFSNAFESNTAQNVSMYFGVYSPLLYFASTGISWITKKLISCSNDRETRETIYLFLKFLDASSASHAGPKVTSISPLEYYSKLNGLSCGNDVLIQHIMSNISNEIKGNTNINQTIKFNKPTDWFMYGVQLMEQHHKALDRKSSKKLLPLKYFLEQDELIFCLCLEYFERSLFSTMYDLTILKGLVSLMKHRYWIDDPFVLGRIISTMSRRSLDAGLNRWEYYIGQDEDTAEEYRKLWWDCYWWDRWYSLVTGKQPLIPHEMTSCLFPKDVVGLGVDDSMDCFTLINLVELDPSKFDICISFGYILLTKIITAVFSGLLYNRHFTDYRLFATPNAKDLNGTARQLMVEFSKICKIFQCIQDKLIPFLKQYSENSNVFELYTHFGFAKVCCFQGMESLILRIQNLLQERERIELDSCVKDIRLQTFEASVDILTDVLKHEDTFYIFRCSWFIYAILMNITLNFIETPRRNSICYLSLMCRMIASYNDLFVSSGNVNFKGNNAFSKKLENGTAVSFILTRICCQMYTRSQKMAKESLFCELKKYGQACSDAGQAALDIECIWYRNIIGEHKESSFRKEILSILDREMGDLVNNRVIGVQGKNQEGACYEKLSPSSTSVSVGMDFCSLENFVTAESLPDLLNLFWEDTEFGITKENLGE
In short: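 Using PURExpress in vitro transcription/translation, GST-tagged yeast transcription factors were made in full-length or DNA-binding-domain form. These were applied at about 100-200 nM to double-stranded universal all-10-mer Agilent arrays, and bound protein was detected with fluorescent anti-GST. Scans were normalised with masliner before the Universal PBM Analysis Suite assigned E-scores to ungapped eight-base words pooled with their reverse complements.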

Sequence | PBM E-score
AGGTCAGC | 0.00649
AGTGACCC | -0.292
ATTGATCA | 0.103
AATATCGC | 0.0882
CGCGATTA | 0.0355
CCCAAACA | 0.0426
GAGTTTCA | 0.00333
GCGTGTAC | -0.179
CCGTTGTA | 0.211
CCACGCGC | -0.244
GATTTCGC | 0.312
ATAAGCTC | 0.059
ACACGCTG | -0.125
CGAAACCC | 0.049
CATAGTTA | 0.0565
ACTTCGCT | -0.0272
AGCGTGGC | -0.0559
CTGTCGGC | 0.0943
GATTTGAC | -0.0725
CCAGCTGC | -0.101
AATCTATG | 0.0937
GAGGACAA | -0.118
ATAGCCCA | -0.0509
CCCTGACA | -0.18
CCCCGCGA | -0.0621

Sequence | PBM E-score
CGGAGGTC | 0.173
TACAACGA | 0.0907
CAATTTGA | 0.0591
CCTTACAA | -0.037
AGTAGTAG | -0.117
AATATACT | 0.047
ACTTGCCC | -0.154
GGGACCAA | -0.0466
GCTCAGCC | -0.157
CAAACTAA | 0.229
AAGGATTC | -0.165
CGATCCCG | 0.102
TATGGTGA | -0.114
GAGGGGCC | -0.23
CTCCGCCA | -0.0578
GACCATAC | 0.029
GGCGACCC | -0.259
CGTATTGC | 0.0559
ACGTTGGC | -0.185
GGGGTTAC | -0.282
CTTGGACC | -0.236
AGCAGAAC | -0.0159
CGGGAATA | 0.3
ACCTTCCC | -0.14
CTAGCACC | -0.0123

Sequence | PBM E-score
AGCACTTG | -0.338
GACTGGTA | 0.00991
AAACGCAG | 0.131
AAGTTCAG | 0.0998
CGCTGACC | 0.0709
AGTTAAGA | 0.015
GCGCGCAA | 0.116
ACAAGGAA | 0.156
CTACTATA | 0.157
ACAATCCC | 0.116
AAGTTGGT | 0.0483
CAAGTGTA | -0.162
CTATGTGC | -0.119
CGGGCGAC | -0.127
AGTCGTGA | -0.192
CCGGTCTC | 0.0994
AGCATGCG | 0.0983
ACTAGAGA | -0.0738
AGTACTCA | -0.0857
GTACCGGA | 0.285
GGGGGTTA | -0.364
CCGGGATA | 0.315
CGCCGTCC | 0.13
AATCATGT | -0.06
GGTCCTCA | -0.014

Two entries drawn at random from those above, as already listed:
Sequence | PBM E-score
GACTGGTA | 0.00991
GCTCAGCC | -0.157

More records.

Sequence | PBM E-score
AATGGCAG | -0.124
ACATAACA | 0.149
AGGTGACA | -0.049
ATATTTGA | 0.0537
ATGCCTTA | -0.206
AGTCACCA | -0.311
GAGTTTGC | 0.0509
CACTTAAG | 0.217
CTAAGCTC | -0.107
ATGGTGCG | -0.117
ACGGCCCT | -0.124
GCCCATGA | -0.125
GCACGCCC | 0.0562
TCTGGACA | -0.0367
ACTGTCTC | -0.0441
ACTTAAGT | 0.0375
ATTGTGCG | -0.0503
ACAGAGCG | 0.00106
AGGATTCG | 0.0476
AGCTTCGA | -0.0494
CATGAGTA | -0.122
CCCGTCTA | -0.0617
GAGGGGAC | -0.111
CGATTAAC | 0.111
CATTACCG | 0.13

Sequence | PBM E-score
ACAGACCG | 0.0789
ACACATCA | -0.0845
TAGGCGCA | -0.117
CCATGGCA | -0.199
ACCCGGGA | 0.367
GCGGAGTA | 0.0105
CACAATCG | 0.059
GAAACAGC | 0.049
CCGCTAAC | 0.0892
ATCACAGC | 0.0527
AATGGGCC | -0.107
CCCTGATC | -0.171
ACCGGTCG | 0.156
CTGTCATA | -0.192
CCCATCAC | -0.228
CGAGAAGC | -0.00453
CCTGCTAC | -0.0227
ACAGAACA | 0.0718
ACTCCGCA | -0.084
CTATCTTA | 0.0105
GCTAAATA | 0.0302
CCGGGTGC | 0.179
CAAATGTA | 0.0845
CTCAACAG | -0.0543
AGGTTACT | 0.0631

As a short view, part of the list above:
Sequence | PBM E-score
ACAGACCG | 0.0789
ACACATCA | -0.0845

(continued)

Sequence | PBM E-score
CAATATCA | 0.0165
GTCAGAAC | -0.053
CAGCGGAA | 0.116
GGAGTTAC | 0.0326
CCGACCCG | 0.122
GACGATTA | 0.0324
GAAGACGC | -0.0156
CACCCCGG | -0.00956
AATCACAC | 0.145
GCCATAGC | -0.138
CCTGTAAC | -0.0354
AAATCATC | -0.0672
AGACTCTG | -0.113
AAAAATGT | 0.0248
CCCAACAC | -0.259
ACTATAAT | 0.0807
CACTATGA | -0.0175
AGGAAATC | 0.0763
ACGTTGCG | 0.026
CCACAAAA | 0.123
TTATCCAA | 0.181
GACGGAAC | 0.125
AGCAGTGG | -0.14
AGGTCTGA | -0.0793
CTGCGACC | -0.136

Sequence | PBM E-score
AACGCCGA | 0.415
ATAGCGGA | 0.011
GGACAATA | 0.193
CTAGCTTA | -0.0824
AGCGGAAC | 0.194
CCTTGCCG | 0.124
AGAAAAAT | 0.117
ACTCGAGG | -0.0549
GACAGCGC | 0.099
AATGATCC | 0.104
AGAACAAG | 0.143
GTTGTATA | 0.12
AAGTAGCT | -0.23
AAGAGGCA | -0.0313
CCAAGCAA | -0.244
AGTTAGAG | -0.0923
CTGTTTCC | 0.0995
CACGTGCC | -0.0707
AGAATTGA | 0.00876
GTTAGTGA | -0.105
AAAGTCGG | 0.0699
ACGTGTGC | -0.345
